The values that follow come from article PMC11291268.

The chains behind the UniProt entries cited, without tags or fusion partners. Where a name states a change or a piece, a line headed by the entry shows the natural chain unless it says otherwise.
UniProt P09471: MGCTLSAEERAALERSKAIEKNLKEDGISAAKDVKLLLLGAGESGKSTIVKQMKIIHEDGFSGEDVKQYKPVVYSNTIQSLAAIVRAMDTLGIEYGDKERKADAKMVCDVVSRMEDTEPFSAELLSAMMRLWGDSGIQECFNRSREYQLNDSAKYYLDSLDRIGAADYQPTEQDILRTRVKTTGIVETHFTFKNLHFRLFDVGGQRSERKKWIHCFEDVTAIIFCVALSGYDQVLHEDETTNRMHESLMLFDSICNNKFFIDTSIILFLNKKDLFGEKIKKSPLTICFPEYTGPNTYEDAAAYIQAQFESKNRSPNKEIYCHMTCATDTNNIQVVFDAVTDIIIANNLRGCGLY

No constants are given. Whether binding was seen depends on the method and setting. Binding seen in cells or lysates may run through a third protein. Some results given as binding are weak or reduced against the parent protein; the word gives no strength. Tags and fused reporters may be left off the sequences shown.

Holding throughout (experiment): co-IP; N2a cells cotransfected with Gαo-GFP variant and His6-RGS19; IP with GST-tagged anti-GFP nanobody and glutathione Sepharose 4B beads, overnight at 4°C; Western blot with anti-GFP and anti-His6
For experiment [1], the target named is Gαo-GFP C215Y (human) (UniProt P09471).
For experiment [2], the target named is Gαo-GFP N270H (human) (UniProt P09471).
The target in experiment [3] is Gαo-GFP A227V (human) (UniProt P09471).
The target of experiment [4] is Gαo-GFP D174G (human) (UniProt P09471).
In experiment [5] the target is Gαo-GFP wild-type (human) (UniProt P09471).
The target in experiment [6] is Gαo-GFP Q233P (human) (UniProt P09471).
The target of experiment [7] is Gαo-GFP G40R (human) (UniProt P09471).
Experiment [8] has as its target Gαo-GFP E237K (human) (UniProt P09471).
The target of experiment [9] is Gαo-GFP F275S (human) (UniProt P09471).
The target in experiment [10] is Gαo-GFP Y231C (human) (UniProt P09471).
For experiment [11], the target named is Gαo-GFP L199P (human) (UniProt P09471).
Experiment [12] addresses Gαo-GFP I279N (human) (UniProt P09471).
Experiment [13] concerns the target Gαo-GFP G45E (human) (UniProt P09471).
The target of experiment [14] is Gαo-GFP S47G (human) (UniProt P09471).
Experiment [15] deals with Gαo-GFP E246K (human), P09471. The conditions noted are these: remark: other sources report otherwise.
In experiment [16] the target is Gαo-GFP R209C (human), P09471. The conditions noted are these: remark: other sources report otherwise.
The target in experiment [17] is Gαo-GFP G203R (human), P09471. The conditions noted are these: remark: other sources report otherwise.

B1: His6-RGS19 (protein, UniProt P49795 1-217)
chain: MPTPHEAEKQITGPEEADRPPSMSSHDTASPAAPSRNPCCLCWCCCCSCSWNQERRRAWQASRESKLQPLPSCEVCATPSPEEVQSWAQSFDKLMHSPAGRSVFRAFLRTEYSEENMLFWLACEELKAEANQHVVDEKARLIYEDYVSILSPKEVSLDSRVREGINKKMQEPSAHTFDDAQLQIYTLMHRDSYPRFLSSPTYRALLLQGPSQSSSEA
Consider B1, for which the binding result is listed as “no binding” in [1]; “no binding” in experiment [2]; “no binding” in [3]; “no binding” in experiment [4]; “binds” in experiment [5]; “no binding” in experiment [6]. In addition, the binding result in [7], in experiment [8], in experiment [9], in experiment [10], in [11] and in [12] was “no binding” in each case. Besides, the binding entry in experiment [13] and in experiment [14] was “no binding” each time.

B2: His6-RGS19, P49795 1-217 (protein)
chain: B1 chain
B2: the binding entry in experiment [15], in experiment [16] and in experiment [17] was “no binding” each time.
